Structures can show the parent of a compound that is named as a salt. The list shows a part of the results. The calls rarely recur for the same compound in another form.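 Kinases were expressed as nanoluciferase fusions in K562 cells and luminescence was read every 4 h between 2 and 18 h as percent of control, DMSO set to 100% and a positive control to 0%. A time point counts as decreased when the signal drops significantly (2 sigma). The hit call is the authors' own, does not follow from the count of time points alone, and its rule is not shown.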
target: CSNK1A1 (UniProt P48729); experiment: kinase-Nluc reporter destabilization hit call (1 = scored as downregulated) (binary); higher = compound decreases kinase abundance; settings: 2.5 µM; K562; 2-18 h

Protein sequences, listed by entry. Tags and fused reporters are not part of them. Lines headed by an entry give the natural chain unless they say otherwise; changes in a name come on top.
UniProt P48729: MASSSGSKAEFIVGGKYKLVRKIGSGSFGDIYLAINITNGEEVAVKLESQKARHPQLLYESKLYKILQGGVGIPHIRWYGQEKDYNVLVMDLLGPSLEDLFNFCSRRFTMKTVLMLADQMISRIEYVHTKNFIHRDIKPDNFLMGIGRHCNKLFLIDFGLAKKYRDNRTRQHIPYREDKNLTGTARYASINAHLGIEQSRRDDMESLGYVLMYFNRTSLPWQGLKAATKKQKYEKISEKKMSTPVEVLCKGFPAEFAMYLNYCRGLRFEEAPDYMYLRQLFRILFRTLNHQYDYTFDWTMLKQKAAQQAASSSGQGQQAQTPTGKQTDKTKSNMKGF

kinase-Nluc reporter destabilization hit call, inactive:
C=CC(=O)N1CCC[C@@H](n2nc(-c3ccc(Oc4ccccc4)cc3)c3c(N)ncnc32)C1 [Ibrutinib] 0
Cc1cn(-c2cc(NC(=O)c3ccc(C)c(Nc4nccc(-c5cccnc5)n4)c3)cc(C(F)(F)F)c2)cn1 [Nilotinib] 0
Cc1cc(C)n2c1C=C1C=CC(CCC(=O)NCCN3CCN(C/C=C/C(=O)N4CCCC(n5nc(-c6ccc(Oc7ccccc7)cc6)c6c(N)ncnc65)C4)CC3)=[N+]1[B-]2(F)F (stereo not given) 0
Cc1cnc(Nc2ccc(OCCN3CCCC3)cc2)nc1Nc1cccc(S(=O)(=O)NC(C)(C)C)c1 [Fedratinib (hydrochloride hydrate)] 0
C=CC(=O)Nc1cc2c(Nc3ccc(F)c(Cl)c3)ncnc2cc1OCCCN1CCOCC1 [Canertinib (dihydrochloride)] 0
O=C(Nc1cccc(Nc2nccc(Nc3cccc(C(F)(F)F)c3)n2)c1)C1CC1 [Aurora kinase inhibitor-3] 0
COc1ccc(-c2cc3nccn3c(Nc3ncccc3C(N)=O)n2)cc1OC [BAY 61-3606 (dihydrochloride)] 0
Nc1nc(Nc2ccc(S(N)(=O)=O)cc2)nn1C(=O)c1c(F)cccc1F 0
COc1cc(N2CCC(N3CCN(C)CC3)CC2)ccc1Nc1ncc(Cl)c(Nc2ccccc2S(=O)(=O)C(C)C)n1 0
COc1cc(Nc2c(C#N)cnc3cc(OCCCN4CCN(C)CC4)c(OC)cc23)c(Cl)cc1Cl [Bosutinib] 0
CCc1cc2c(cc1-c1cnn(CC(=O)N(C)C)c1)C(C)(C)c1[nH]c3cc(C#N)ccc3c1C2=O 0
Cc1cnc(Nc2ccc(OCCN3CCCC3)cc2)nc1Nc1cccc(S(=O)(=O)NC(C)(C)C)c1 [Fedratinib] 0
Cc1cc(Nc2cc(N3CCN(C)CC3)nc(/C=C/c3ccccc3)n2)n[nH]1 [ENMD-2076 (Tartrate)] 0
Cc1cc(Nc2cc(N3CCN(C)CC3)nc(/C=C/c3ccccc3)n2)n[nH]1 0

Taken from the entries so far for reference:
kinase-Nluc reporter destabilization hit call, inactive:
COc1cc(N2CCC(N3CCN(C)CC3)CC2)ccc1Nc1ncc(Cl)c(Nc2ccccc2S(=O)(=O)C(C)C)n1 0
COc1cc(Nc2c(C#N)cnc3cc(OCCCN4CCN(C)CC4)c(OC)cc23)c(Cl)cc1Cl [Bosutinib] 0
CCc1cc2c(cc1-c1cnn(CC(=O)N(C)C)c1)C(C)(C)c1[nH]c3cc(C#N)ccc3c1C2=O 0

same assay, conditions: 10 µM; K562; 2-18 h

kinase-Nluc reporter destabilization hit call, inactive:
C=CC(=O)N1CCC([C@@H]2CCNc3c(C(N)=O)c(-c4ccc(Oc5ccccc5)cc4)nn32)CC1 [Zanubrutinib] 0
CCn1c(=O)c(-c2cc(NC(=O)Nc3ccccc3)c(F)cc2Br)cc2cnc(NC)cc21 [Ripretinib] 0
COc1cc(N2CCN(C)CC2)ccc1Nc1nccc(-c2cn(C)c3cnccc23)n1 0
Fc1ccc(-c2nc(-c3ccc4ccccc4c3F)[nH]c2-c2ccncc2)cc1 0
C=CC(=O)N(C)CCOc1c(N)ncnc1-c1cc(F)cc(NC(=O)c2ccc(C3CC3)cc2F)c1C [Remibrutinib] 0
NCCNc1ncc(C(N)=O)c(Nc2cccc(C(F)(F)F)c2)n1 [Syk Inhibitor II] 0
C[C@@H]1O[C@@H](Oc2c(-c3ccc(O)c(O)c3)oc3cc(O)cc(O)c3c2=O)[C@H](O)[C@H](O)[C@H]1O [Quercitrin] 0
CCCOc1ccc(C=C2SC(=O)NC2=O)cc1 0
Cc1cc2c(F)c(Oc3ncnn4cc(OC[C@@H](C)O)c(C)c34)ccc2[nH]1 [Brivanib] 0
CC(C)[C@@](C)(O)[C@@H]1CN(c2nc(-c3[nH]nc4ncccc34)c(F)cc2Cl)CCN1 0
CCCCCCCCCCCCc1ccc(S(=O)(=O)Nc2nncs2)cc1 0
CC#CC(=O)N1CCC[C@H]1c1nc(-c2ccc(C(=O)Nc3ccccn3)cc2)c2c(N)nccn12 [Acalabrutinib] 0
CC(C)N(CCC(=O)c1ccc2ccccc2c1)Cc1ccccc1 0
C=CC(=O)N1C[C@@H](Nc2ncnc3[nH]ccc23)CC[C@H]1C [(2R,5S)-Ritlecitinib] 0
COc1ccc(-c2cc(C(=O)NN=C(C)c3ccc(OC)c(OC)c3)[nH]n2)cc1 0
Cn1cc(/C=C2\C(=O)Nc3cccnc32)c2ccccc21 0
Cc1ccc2c(=O)c3cccc(CC(=O)O)c3oc2c1C [Vadimezan] 0
C[C@@H]1CN(C(=O)Nc2ccc(-c3nc(N4CCOCC4)c4cnn(CCCCCCC(=O)NO)c4n3)cc2)CCO1 [HDACs/mTOR Inhibitor 1] 0
C[C@H]1CN(C2COC2)CCN1c1ccc(Nc2cc(-c3ccnc(N4CCn5c(cc6c5CC(C)(C)C6)C4=O)c3CO)cn(C)c2=O)nc1 [Fenebrutinib] 0
Nc1ncccc1-c1nc2ccc(-c3ccccc3)nc2n1-c1ccc(C2(N)CCC2)cc1 [Miransertib] 0
C=CC(=O)Nc1cc2c(Nc3ccc(F)c(Cl)c3)ncnc2cc1OCCCN1CCOCC1 [Canertinib] 0
O=c1ncn2nc(Sc3ccc(F)cc3F)ccc2c1-c1c(Cl)cccc1Cl [Neflamapimod] 0
CCCCCC1CC1CC1CC1CCCCCCCC(=O)OC (stereo not given) 0
CC(C)(C)n1nc(-c2ccc(Cl)cc2)c2c(N)ncnc21 0
NC1(C(=O)N[C@@H](CCO)c2ccc(Cl)cc2)CCN(c2nc[nH]c3nccc2-3)CC1 [Capivasertib] 0
Cc1ccc(O)cc1Nc1ccnc(Nc2cccc(C(N)=O)c2)n1 [Lck inhibitor 2] 0
